Data from the supplement of paper PMC10849652.
The other results are listed elsewhere or left out.

By UniProt entry, the sequences of proteins in these tests, tags left out. Where a name states a change or a piece, a line headed by the entry shows the natural chain unless it says otherwise.
UniProt Q8IWP9: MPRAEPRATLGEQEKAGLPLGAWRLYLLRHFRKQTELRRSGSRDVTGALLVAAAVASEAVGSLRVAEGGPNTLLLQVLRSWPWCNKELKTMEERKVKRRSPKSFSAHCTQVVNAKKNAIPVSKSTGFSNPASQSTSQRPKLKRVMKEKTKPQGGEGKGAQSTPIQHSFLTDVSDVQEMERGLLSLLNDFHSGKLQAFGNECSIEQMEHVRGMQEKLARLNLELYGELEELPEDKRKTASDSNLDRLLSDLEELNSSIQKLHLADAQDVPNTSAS
UniProt P55211: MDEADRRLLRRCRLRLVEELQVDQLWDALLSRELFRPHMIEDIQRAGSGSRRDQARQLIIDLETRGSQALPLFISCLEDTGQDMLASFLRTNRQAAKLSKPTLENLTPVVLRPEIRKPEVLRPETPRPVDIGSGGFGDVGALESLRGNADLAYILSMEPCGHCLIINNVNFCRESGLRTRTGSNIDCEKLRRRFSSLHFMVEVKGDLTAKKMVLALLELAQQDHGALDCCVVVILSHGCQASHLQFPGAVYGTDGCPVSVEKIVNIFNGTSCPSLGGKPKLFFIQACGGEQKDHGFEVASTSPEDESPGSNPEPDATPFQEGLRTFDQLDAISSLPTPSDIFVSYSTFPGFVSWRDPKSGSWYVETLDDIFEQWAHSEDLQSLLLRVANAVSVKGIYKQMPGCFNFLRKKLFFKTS
UniProt P15529: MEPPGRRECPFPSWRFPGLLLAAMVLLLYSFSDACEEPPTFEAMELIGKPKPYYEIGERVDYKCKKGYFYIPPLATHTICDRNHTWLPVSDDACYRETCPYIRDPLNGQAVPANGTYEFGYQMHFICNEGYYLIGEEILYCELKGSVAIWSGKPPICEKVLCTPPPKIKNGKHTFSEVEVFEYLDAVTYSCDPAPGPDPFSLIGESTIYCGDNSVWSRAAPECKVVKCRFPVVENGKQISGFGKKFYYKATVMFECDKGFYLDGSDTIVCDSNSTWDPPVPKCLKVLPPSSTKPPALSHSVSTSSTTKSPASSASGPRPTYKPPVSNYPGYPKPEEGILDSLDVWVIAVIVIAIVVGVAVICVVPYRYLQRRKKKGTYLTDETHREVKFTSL
UniProt P30307: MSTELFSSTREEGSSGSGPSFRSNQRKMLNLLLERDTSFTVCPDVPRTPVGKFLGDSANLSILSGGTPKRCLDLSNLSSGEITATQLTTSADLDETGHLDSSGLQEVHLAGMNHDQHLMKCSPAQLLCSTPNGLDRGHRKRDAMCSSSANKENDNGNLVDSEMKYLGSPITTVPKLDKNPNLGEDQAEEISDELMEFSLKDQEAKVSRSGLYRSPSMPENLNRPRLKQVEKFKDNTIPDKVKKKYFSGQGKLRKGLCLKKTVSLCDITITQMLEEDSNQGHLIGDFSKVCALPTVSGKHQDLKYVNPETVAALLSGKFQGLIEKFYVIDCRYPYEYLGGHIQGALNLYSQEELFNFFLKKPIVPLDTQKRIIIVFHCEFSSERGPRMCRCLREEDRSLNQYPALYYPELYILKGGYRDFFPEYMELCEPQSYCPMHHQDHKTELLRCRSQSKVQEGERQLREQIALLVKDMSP
UniProt P55210: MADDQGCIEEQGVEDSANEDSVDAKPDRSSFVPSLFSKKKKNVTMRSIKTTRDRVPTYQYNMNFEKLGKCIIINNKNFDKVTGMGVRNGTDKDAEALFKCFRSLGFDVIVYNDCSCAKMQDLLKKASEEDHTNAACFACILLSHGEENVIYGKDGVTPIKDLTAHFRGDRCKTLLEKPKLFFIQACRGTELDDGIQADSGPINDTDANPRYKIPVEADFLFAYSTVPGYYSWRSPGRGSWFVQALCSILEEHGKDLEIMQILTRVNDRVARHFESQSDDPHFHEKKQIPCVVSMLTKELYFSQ

Key:
Assay in all cases: log2 fold change, soluble protein after heating vs DMSO (PISA); higher = thermal stabilisation; K562 cells, 10 uM, 30 min; active = over 0.2 and 3.5 SD of the protein, either way, in both replicates (recomputed)
[1] = compound: NC(=O)Nc1cc(-c2cccc(F)c2)sc1C(=O)N[C@H]1CCCNC1
Outline: (§1)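 K562 cells at 2×10^6 cells/mL were treated with 10 μM compound for 30 min. Aliquots were heated for 3 min across 48°C-58°C, pooled, and extracted in PBS with 0.5% NP-40 at 4°C; soluble protein was the supernatant after 21,000xg for 90 min. Soluble protein was quantified by TMTpro 16plex LC-MS/MS with channel sums equalised, and reported as log2 fold change in thermal stability against DMSO controls, with values from duplicates.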

[2] = compound: NC(=O)c1cnc(N[C@@H]2CCCC[C@@H]2N)nc1Nc1cccc(-n2nccn2)c1
Outline: as §1

[3] = compound: NC1(c2ccc(-c3nc4ccn5c(=O)[nH]nc5c4cc3-c3ccccc3)cc2)CCC1
Outline: as §1

[4] = compound: NCC(=O)Nc1ccc(-n2nc(C(F)(F)F)cc2-c2ccc3c(ccc4ccccc43)c2)cc1
Outline: as §1

entinostat = compound: Nc1ccccc1NC(=O)c1ccc(CNC(=O)OCc2cccnc2)cc1 [entinostat]
Outline: as §1

citarinostat = compound: O=C(CCCCCCNC(=O)c1cnc(N(c2ccccc2)c2ccccc2Cl)nc1)NO [citarinostat]
Outline: as §1

silmitasertib = compound: O=C(O)c1ccc2c(c1)nc(Nc1cccc(Cl)c1)c1ccncc12 [silmitasertib]
Outline: as §1

[5] = compound: O=C1NC(=O)C(c2cnc3ccccn23)=C1c1cn2c3c(cc(F)cc13)CN(C(=O)N1CCCCC1)CC2
Outline: as §1

[6] = compound: c1cc(OCCN2CCCCC2)cc(-c2n[nH]c3ccc(-c4nnc[nH]4)cc23)c1
Outline: as §1

entospletinib = compound: c1cn2cc(-c3ccc4cn[nH]c4c3)nc(Nc3ccc(N4CCOCC4)cc3)c2n1 [entospletinib]
Outline: as §1

vorinostat = compound: O=C(CCCCCCC(=O)Nc1ccccc1)NO [vorinostat]
Outline: as §1

Measured: log2 fold change

CCDC28A (UniProt Q8IWP9)
inactive: [1] -0.007 | [2] -0.123 | [3] -0.014 | [4] 0.142 | entinostat -0.031 | citarinostat 0.006 | silmitasertib 0.008 | [5] -0.244 | [6] 0.017 | entospletinib 0

CASP9 (UniProt P55211)
inactive: [1] 0.059 | [2] -0.234 | [4] -0.111 | entinostat -0.098 | vorinostat 0.045 | citarinostat 0.05 | [5] -0.057 | [6] 0.054

CD46 (UniProt P15529)
inactive: [1] 0.122 | [4] -0.105 | entinostat -0.072

CDC25C (UniProt P30307)
inactive: [2] -0.048 | [3] -0.061 | silmitasertib -0.264 | [5] 0.507

CASP7 isoform 3 (UniProt P55210)
inactive: vorinostat 0.044 | citarinostat -0.058 | [5] -0.048 | [6] 0.021
